These are yes or no findings as the source states them, for the method shown. Binding calls can cover weak binding; strength is not graded here.

The test deals with T1, Spigot (C. elegans) (UniProt Q4W5H0).
T1 sequence: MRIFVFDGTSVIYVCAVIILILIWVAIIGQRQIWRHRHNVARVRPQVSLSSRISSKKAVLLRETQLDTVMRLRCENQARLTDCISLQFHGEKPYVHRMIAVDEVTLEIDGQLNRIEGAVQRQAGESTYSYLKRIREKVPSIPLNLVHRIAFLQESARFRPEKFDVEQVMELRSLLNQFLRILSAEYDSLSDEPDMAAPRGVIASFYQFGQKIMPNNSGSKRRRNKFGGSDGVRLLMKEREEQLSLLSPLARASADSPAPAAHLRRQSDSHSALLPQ
In words: cryo-EM structure.

Intake (C. elegans): the binding result is recorded as “binds weakly”.
